Test results as given in the supplement of paper PMC6411743.
± gives the standard deviation of the averaged measurements. The list shows a part of the results.

Amino acid sequences for entries named in this document (tags omitted). A change or cut given only in a name is not applied to a line headed by its entry.
UniProt Q8N1F7: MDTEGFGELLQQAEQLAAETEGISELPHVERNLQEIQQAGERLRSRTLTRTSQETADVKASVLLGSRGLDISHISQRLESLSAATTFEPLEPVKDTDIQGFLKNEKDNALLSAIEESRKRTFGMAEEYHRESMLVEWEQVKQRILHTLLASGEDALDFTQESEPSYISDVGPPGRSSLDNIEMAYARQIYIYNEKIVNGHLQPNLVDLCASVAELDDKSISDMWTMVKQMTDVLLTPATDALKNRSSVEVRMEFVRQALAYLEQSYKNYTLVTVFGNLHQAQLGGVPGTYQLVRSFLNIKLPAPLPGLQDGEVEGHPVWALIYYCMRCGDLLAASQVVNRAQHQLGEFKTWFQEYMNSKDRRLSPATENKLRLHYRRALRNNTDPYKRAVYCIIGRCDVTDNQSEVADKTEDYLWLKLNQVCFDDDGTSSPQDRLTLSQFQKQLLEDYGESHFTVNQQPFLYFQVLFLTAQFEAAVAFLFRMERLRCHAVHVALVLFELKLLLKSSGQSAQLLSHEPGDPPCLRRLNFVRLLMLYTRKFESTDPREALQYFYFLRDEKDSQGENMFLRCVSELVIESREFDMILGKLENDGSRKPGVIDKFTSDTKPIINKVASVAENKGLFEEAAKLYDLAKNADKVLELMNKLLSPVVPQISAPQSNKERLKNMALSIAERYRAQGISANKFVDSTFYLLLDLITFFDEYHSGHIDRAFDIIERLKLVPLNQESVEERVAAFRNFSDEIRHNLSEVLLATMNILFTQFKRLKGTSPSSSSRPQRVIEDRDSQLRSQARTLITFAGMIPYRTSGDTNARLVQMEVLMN
UniProt Q9BZV1: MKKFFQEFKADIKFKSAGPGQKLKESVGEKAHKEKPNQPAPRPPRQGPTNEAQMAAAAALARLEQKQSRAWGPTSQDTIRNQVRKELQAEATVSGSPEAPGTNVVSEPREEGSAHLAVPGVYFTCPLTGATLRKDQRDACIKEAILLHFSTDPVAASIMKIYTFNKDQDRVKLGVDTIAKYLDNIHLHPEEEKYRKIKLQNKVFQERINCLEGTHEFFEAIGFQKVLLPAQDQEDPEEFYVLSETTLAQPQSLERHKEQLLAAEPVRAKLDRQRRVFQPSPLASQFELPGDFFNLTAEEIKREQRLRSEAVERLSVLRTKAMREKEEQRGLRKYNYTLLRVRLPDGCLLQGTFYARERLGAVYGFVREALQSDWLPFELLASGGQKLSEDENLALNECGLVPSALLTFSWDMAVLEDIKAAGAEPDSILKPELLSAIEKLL
UniProt Q9NQ48: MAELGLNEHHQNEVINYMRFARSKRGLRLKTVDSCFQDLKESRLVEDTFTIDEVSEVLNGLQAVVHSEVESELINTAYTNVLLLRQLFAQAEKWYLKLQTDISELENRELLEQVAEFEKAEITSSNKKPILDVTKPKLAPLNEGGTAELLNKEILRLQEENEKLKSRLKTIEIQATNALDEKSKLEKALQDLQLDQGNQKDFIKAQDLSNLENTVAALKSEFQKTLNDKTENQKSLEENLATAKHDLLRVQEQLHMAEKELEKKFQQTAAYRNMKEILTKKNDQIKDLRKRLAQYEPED
UniProt Q02978: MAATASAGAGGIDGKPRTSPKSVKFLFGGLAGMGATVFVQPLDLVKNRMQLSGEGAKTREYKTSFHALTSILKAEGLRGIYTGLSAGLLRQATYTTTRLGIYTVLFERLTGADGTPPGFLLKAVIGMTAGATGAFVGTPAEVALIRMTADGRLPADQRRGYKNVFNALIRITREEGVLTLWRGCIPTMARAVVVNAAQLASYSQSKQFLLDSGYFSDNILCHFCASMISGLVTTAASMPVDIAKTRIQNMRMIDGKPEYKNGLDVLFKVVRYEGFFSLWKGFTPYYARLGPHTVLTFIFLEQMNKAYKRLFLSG
UniProt P15735: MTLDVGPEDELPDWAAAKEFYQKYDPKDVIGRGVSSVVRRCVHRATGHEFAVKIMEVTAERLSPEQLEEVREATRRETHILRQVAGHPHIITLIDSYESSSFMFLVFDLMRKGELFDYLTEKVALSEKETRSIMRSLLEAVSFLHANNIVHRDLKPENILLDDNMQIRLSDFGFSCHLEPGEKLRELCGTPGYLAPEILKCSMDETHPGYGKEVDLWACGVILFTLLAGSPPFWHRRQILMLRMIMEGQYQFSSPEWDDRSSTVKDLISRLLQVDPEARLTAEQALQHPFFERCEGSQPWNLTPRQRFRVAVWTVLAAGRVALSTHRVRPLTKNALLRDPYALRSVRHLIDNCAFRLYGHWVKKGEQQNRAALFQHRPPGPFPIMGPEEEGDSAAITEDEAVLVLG
UniProt O95232: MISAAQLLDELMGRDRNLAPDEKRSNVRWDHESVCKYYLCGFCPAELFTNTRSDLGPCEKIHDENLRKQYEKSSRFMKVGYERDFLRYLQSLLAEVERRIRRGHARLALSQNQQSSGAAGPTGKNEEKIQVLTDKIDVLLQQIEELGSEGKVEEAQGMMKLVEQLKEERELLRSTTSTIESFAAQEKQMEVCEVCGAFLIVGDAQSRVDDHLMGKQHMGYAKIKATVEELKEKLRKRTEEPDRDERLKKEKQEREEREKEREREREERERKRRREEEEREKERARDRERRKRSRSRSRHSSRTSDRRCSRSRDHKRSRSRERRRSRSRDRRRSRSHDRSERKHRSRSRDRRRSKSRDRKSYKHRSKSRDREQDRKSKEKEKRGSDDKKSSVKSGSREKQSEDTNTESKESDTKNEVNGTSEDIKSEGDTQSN
UniProt Q92622: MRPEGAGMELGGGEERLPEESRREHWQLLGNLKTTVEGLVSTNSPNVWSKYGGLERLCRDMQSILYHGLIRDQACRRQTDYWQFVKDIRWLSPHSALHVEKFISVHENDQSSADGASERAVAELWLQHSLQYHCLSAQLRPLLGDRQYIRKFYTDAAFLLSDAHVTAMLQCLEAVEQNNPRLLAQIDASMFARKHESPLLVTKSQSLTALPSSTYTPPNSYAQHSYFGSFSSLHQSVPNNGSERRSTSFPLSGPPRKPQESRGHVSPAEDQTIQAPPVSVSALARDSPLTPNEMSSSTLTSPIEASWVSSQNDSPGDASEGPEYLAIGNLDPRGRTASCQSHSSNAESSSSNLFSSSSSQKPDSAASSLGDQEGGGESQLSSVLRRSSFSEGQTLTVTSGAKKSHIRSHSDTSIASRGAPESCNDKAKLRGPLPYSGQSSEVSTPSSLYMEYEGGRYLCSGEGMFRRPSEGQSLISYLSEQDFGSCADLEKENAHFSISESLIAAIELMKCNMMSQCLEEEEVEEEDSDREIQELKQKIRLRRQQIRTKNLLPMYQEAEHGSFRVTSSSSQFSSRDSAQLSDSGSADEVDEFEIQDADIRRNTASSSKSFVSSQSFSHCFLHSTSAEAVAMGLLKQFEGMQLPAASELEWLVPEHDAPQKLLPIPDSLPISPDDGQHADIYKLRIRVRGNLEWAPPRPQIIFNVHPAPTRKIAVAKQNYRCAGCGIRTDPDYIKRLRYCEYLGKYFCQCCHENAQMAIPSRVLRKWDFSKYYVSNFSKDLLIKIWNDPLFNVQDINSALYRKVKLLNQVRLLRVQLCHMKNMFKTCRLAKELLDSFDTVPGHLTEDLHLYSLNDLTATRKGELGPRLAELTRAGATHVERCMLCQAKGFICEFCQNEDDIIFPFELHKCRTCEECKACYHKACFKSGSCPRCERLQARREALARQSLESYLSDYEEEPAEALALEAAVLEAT
UniProt Q9NRY6: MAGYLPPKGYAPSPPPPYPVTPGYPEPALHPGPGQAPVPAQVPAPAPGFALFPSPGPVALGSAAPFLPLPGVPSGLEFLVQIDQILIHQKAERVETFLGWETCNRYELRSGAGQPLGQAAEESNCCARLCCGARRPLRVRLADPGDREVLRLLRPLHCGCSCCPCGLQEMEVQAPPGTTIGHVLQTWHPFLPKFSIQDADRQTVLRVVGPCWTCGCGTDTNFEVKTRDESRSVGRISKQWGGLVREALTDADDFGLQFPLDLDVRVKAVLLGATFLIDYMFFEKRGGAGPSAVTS
UniProt Q96EE3: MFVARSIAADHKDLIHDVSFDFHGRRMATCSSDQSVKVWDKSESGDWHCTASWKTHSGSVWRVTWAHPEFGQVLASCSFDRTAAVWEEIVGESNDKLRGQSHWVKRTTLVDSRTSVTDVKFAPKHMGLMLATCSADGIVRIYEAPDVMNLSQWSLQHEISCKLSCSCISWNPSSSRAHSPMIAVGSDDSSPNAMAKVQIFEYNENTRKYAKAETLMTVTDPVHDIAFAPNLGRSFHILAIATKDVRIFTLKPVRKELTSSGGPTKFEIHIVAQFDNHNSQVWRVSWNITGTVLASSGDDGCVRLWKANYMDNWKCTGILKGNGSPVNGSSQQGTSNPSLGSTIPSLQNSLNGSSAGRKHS
UniProt Q9BRQ6: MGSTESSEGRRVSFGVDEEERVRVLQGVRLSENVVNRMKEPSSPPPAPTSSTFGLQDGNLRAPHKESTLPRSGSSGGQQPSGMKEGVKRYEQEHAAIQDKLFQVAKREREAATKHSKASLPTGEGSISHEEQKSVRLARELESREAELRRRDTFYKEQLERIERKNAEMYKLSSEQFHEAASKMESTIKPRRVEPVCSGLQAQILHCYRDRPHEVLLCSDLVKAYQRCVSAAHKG
UniProt Q9UJ70, whole entry: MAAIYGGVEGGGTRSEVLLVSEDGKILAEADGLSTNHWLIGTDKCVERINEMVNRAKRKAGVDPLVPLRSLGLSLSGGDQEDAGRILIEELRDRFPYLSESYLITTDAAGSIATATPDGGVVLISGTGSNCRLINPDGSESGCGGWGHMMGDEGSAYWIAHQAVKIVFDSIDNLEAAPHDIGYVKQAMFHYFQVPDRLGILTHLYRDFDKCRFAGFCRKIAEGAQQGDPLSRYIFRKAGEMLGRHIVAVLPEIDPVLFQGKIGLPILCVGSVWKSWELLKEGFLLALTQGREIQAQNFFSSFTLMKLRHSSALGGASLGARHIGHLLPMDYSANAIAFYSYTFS
UniProt P36776: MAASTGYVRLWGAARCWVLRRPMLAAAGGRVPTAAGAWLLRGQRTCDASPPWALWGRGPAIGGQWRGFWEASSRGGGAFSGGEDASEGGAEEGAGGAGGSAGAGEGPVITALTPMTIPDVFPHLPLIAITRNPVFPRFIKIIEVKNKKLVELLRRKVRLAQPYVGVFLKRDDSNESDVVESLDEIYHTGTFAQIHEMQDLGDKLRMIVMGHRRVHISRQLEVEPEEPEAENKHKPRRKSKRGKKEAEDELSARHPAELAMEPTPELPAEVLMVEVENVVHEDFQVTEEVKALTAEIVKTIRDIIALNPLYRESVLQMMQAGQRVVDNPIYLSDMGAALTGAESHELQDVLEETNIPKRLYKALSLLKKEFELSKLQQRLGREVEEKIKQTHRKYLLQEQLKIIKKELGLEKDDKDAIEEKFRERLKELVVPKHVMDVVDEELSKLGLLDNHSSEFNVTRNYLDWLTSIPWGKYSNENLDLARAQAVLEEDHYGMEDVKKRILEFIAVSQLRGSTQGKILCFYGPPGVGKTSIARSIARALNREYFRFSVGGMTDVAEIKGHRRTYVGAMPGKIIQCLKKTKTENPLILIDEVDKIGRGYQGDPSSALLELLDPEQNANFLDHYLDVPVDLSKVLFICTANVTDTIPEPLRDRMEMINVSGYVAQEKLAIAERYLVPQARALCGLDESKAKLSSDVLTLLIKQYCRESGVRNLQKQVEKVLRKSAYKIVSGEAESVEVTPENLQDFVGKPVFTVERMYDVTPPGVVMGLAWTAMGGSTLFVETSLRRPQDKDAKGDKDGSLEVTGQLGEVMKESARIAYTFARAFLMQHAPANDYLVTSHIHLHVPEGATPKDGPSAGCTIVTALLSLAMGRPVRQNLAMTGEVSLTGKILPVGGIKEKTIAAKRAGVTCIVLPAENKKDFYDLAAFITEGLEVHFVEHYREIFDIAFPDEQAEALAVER
UniProt P07992: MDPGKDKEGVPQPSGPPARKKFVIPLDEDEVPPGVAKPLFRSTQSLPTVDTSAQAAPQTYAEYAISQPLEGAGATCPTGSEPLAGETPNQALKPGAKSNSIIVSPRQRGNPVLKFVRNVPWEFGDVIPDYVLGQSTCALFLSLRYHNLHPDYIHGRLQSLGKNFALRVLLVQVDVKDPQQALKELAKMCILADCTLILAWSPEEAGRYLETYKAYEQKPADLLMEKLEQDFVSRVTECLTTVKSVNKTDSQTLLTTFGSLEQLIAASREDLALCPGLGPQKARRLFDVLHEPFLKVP
UniProt O75880: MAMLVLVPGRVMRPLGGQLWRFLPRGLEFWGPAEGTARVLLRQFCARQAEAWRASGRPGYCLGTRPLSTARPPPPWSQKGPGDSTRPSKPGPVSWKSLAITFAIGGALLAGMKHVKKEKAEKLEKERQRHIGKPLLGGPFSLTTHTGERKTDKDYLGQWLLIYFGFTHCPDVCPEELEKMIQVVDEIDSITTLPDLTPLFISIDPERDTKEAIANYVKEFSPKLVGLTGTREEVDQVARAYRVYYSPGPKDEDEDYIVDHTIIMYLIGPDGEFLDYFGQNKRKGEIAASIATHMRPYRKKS
UniProt O95166, whole entry: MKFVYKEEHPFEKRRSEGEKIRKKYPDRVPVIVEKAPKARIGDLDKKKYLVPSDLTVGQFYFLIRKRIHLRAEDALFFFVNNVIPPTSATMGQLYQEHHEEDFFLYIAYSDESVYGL

Compound: Nc1nc2c(ncn2[C@@H]2O[C@H](COP(=O)(O)OP(=O)(O)OP(=O)(O)O)[C@@H](O)[C@H]2O)c(=O)[nH]1 [guanosine triphosphate]
Experiment: NP40-soluble protein abundance relative to vehicle (solubility fold change) (ratio); higher = more soluble protein in presence of GTP
Summary of the method: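 Jurkat crude lysate (Dounce-homogenised) was treated with eight concentrations from 0.1 to 10 mM for 10 min at room temperature, then 3 min at 37 °C. It was solubilised with 0.8% NP40 and benzonase (60 min, 4 °C) and ultracentrifuged, and the supernatant was TMT-labelled for LC-MS/MS. Intensities were vsn-normalised, and the value is the fold change against the NP40-processed vehicle per replicate, from three independent experiments.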

| Target | NP40-soluble protein abundance (concentration: 0.1mM) | NP40-soluble protein abundance (concentration: 0.5mM) | NP40-soluble protein abundance (concentration: 1mM) | NP40-soluble protein abundance (concentration: 2mM) | NP40-soluble protein abundance (concentration: 4mM) | NP40-soluble protein abundance (concentration: 6mM) | NP40-soluble protein abundance (concentration: 8mM) | NP40-soluble protein abundance (concentration: 10mM) |
| --- | --- | --- | --- | --- | --- | --- | --- | --- |
| J9JID7 and related entries (UniProt Q03252) | 0.974 ± 0.042 | 0.998 ± 0.045 | 1.01 ± 0.064 | 0.984 ± 0.087 | 0.908 ± 0.063 | 0.93 ± 0.066 | 0.923 ± 0.035 | 0.941 ± 0.045 |
| H3BVG0 and related entries (UniProt Q8N1F7) | 0.971 ± 0.035 | 0.999 ± 0.043 | 0.937 ± 0.032 | 0.9515 ± 0.0053 | 0.961 ± 0.015 | 0.998 ± 0.032 | 0.976 ± 0.058 | 1.02 ± 0.042 |
| K7EP32 and related entries (UniProt Q9BZV1) | 1.06 ± 0.13 | 1.07 ± 0.11 | 1.01 ± 0.14 | 0.994 ± 0.14 | 0.951 ± 0.082 | 0.966 ± 0.083 | 0.97 ± 0.078 | 0.913 ± 0.15 |
| H7C488 and related entries (UniProt Q9NQ48) | 0.87 ± 0.13 | 0.797 ± 0.028 | 1.04 ± 0.17 | 1.05 ± 0.073 | 1.02 ± 0.14 | 1.01 ± 0.088 | 0.917 ± 0.18 | 1.16 ± 0.31 |
| I3L1P8 and related entries (UniProt Q02978) | 1.02 ± 0.021 | 0.999 ± 0.026 | 0.942 ± 0.012 | 1.01 ± 0.12 | 0.994 ± 0.074 | 0.983 ± 0.072 | 0.945 ± 0.034 | 0.976 ± 0.028 |
| H0Y8X4 and related entries (UniProt O43598) | 0.856 ± 0.12 | 0.842 ± 0.15 | 0.823 ± 0.16 | 0.834 ± 0.13 | 0.849 ± 0.15 | 0.823 ± 0.14 | 0.78 ± 0.13 | 0.807 ± 0.12 |
| J3KNN3 and related entries (UniProt P15735) | 1.24 ± 0.25 | 1.2 ± 0.21 | 1.13 ± 0.15 | 1.2 ± 0.2 | 1.22 ± 0.2 | 1.16 ± 0.18 | 1.13 ± 0.21 | 1.11 ± 0.21 |
| J3KMZ7 and related entries (UniProt Q9H0H0) | 1.04 ± 0.13 | 1.08 ± 0.19 | 1.13 ± 0.23 | 1.14 ± 0.24 | 1.18 ± 0.31 | 1.16 ± 0.33 | 0.999 ± 0.3 | 1.19 ± 0.35 |
| J3KPP4 and related entries (UniProt O95232) | 1.13 ± 0.027 | 1.45 ± 0.062 | 1.54 ± 0.1 | 1.54 ± 0.095 | 1.56 ± 0.12 | 1.63 ± 0.13 | 1.72 ± 0.19 | 1.74 ± 0.18 |
| H0Y6E6 and related entries (UniProt Q92622) | 0.979 ± 0.055 | 1.16 ± 0.18 | 1.02 ± 0.21 | 1.03 ± 0.13 | 1.02 ± 0.14 | 1.04 ± 0.11 | 0.935 ± 0.16 | 1.09 ± 0.14 |
| G5E9Z2 and related entries (UniProt Q96KA5) | 1.09 ± 0.049 | 1.07 ± 0.017 | 1.02 ± 0.042 | 0.983 ± 0.034 | 0.989 ± 0.016 | 0.971 ± 0.039 | 0.974 ± 0.035 | 0.96 ± 0.04 |
| I3L3X5 and related entries (UniProt Q9NRY6+I3L3X5) | 1.19 ± 0.13 | 1.28 ± 0.2 | 1.3 ± 0.44 | 1.3 ± 0.26 | 1.48 ± 0.43 | 1.31 ± 0.29 | 1.08 ± 0.17 | 0.952 ± 0.24 |
| K7ELV2 and related entries (UniProt Q96EE3) | 1.04 ± 0.062 | 1.08 ± 0.019 | 1.02 ± 0.036 | 1.05 ± 0.0084 | 1.03 ± 0.027 | 1.05 ± 0.045 | 1.14 ± 0.063 | 1.08 ± 0.022 |
| I3L3P7 and related entries (UniProt P62244) | 1.09 ± 0.15 | 1.03 ± 0.18 | 1.11 ± 0.34 | 1.05 ± 0.32 | 0.895 ± 0.3 | 0.818 ± 0.28 | 0.62 ± 0.19 | 0.767 ± 0.29 |
| J3QTA6 and related entries (UniProt Q9BRQ6) | 1 ± 0.084 | 1.01 ± 0.083 | 1.12 ± 0.14 | 1.15 ± 0.054 | 1.15 ± 0.09 | 1.16 ± 0.062 | 1.22 ± 0.12 | 1.26 ± 0.21 |
| H7C3G9 and related entries (UniProt Q9UJ70) | 1.029 ± 0.0052 | 1 ± 0.042 | 0.9 ± 0.037 | 0.933 ± 0.054 | 0.915 ± 0.015 | 0.886 ± 0.018 | 0.862 ± 0.059 | 0.861 ± 0.057 |
| H0YKD8 and related entries (UniProt P46779) | 0.989 ± 0.1 | 1.06 ± 0.17 | 1.07 ± 0.23 | 0.993 ± 0.27 | 0.881 ± 0.33 | 0.854 ± 0.28 | 0.527 ± 0.13 | 0.901 ± 0.33 |
| K7EKE6 and related entries (UniProt P36776) | 1.04 ± 0.029 | 1.03 ± 0.046 | 0.963 ± 0.045 | 0.945 ± 0.059 | 0.953 ± 0.048 | 0.928 ± 0.054 | 0.916 ± 0.031 | 0.871 ± 0.058 |
| H0Y3K4 and related entries (UniProt Q96EV2) | 0.975 ± 0.064 | 1 ± 0.039 | 1.01 ± 0.025 | 0.989 ± 0.083 | 1.03 ± 0.08 | 1.03 ± 0.035 | 1.08 ± 0.06 | 1.07 ± 0.11 |
| H3BLV9 and related entries (UniProt Q96SB4) | 1.1 ± 0.059 | 1.14 ± 0.026 | 1.21 ± 0.029 | 1.28 ± 0.068 | 1.39 ± 0.062 | 1.45 ± 0.076 | 1.55 ± 0.11 | 1.6 ± 0.18 |
| I3L3Y9 and related entries (UniProt Q13227) | 0.978 ± 0.059 | 0.878 ± 0.0093 | 1.01 ± 0.13 | 1.01 ± 0.072 | 1.02 ± 0.11 | 1.06 ± 0.11 | 1.03 ± 0.13 | 1.08 ± 0.14 |
| H0Y368 and related entries (UniProt O60762) | 1.4 ± 0.19 | 1.57 ± 0.34 | 1.44 ± 0.28 | 1.51 ± 0.34 | 1.52 ± 0.31 | 1.4 ± 0.3 | 1.38 ± 0.23 | 1.31 ± 0.19 |
| K7EP14 and related entries (UniProt P07992) | 0.867 ± 0.027 | 0.881 ± 0.036 | 0.919 ± 0.082 | 0.929 ± 0.016 | 0.879 ± 0.029 | 0.934 ± 0.026 | 0.867 ± 0.045 | 0.909 ± 0.038 |
| J3QL56 and related entries (UniProt O75880) | 0.914 ± 0.063 | 0.941 ± 0.072 | 0.909 ± 0.073 | 0.918 ± 0.097 | 0.873 ± 0.077 | 0.881 ± 0.076 | 0.884 ± 0.083 | 0.87 ± 0.078 |
| H6UMI1 and related entries (UniProt O95166) | 0.876 ± 0.048 | 0.962 ± 0.033 | 0.925 ± 0.055 | 0.874 ± 0.034 | 0.834 ± 0.06 | 0.892 ± 0.063 | 0.844 ± 0.052 | 0.886 ± 0.057 |
| K7ER95 and related entries (UniProt Q92918) | 1.06 ± 0.028 | 1.09 ± 0.031 | 1 ± 0.023 | 1.03 ± 0.029 | 0.991 ± 0.011 | 0.983 ± 0.038 | 0.984 ± 0.039 | 0.945 ± 0.065 |

An excerpt of these results, bar-delimited:
Target | NP40-soluble protein abundance (concentration: 0.1mM) | NP40-soluble protein abundance (concentration: 0.5mM) | NP40-soluble protein abundance (concentration: 1mM) | NP40-soluble protein abundance (concentration: 2mM) | NP40-soluble protein abundance (concentration: 4mM) | NP40-soluble protein abundance (concentration: 6mM) | NP40-soluble protein abundance (concentration: 8mM) | NP40-soluble protein abundance (concentration: 10mM)
J3KNN3 and related entries (UniProt P15735) | 1.24 ± 0.25 | 1.2 ± 0.21 | 1.13 ± 0.15 | 1.2 ± 0.2 | 1.22 ± 0.2 | 1.16 ± 0.18 | 1.13 ± 0.21 | 1.11 ± 0.21
J3KMZ7 and related entries (UniProt Q9H0H0) | 1.04 ± 0.13 | 1.08 ± 0.19 | 1.13 ± 0.23 | 1.14 ± 0.24 | 1.18 ± 0.31 | 1.16 ± 0.33 | 0.999 ± 0.3 | 1.19 ± 0.35
